PubChem BioAssay AID1259425, University of Nebraska Medical Center, 2018
Aim: 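Seek colon cancer weak points whose silencing resembles KSR1 loss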 (primary screen). Cells: HCT116 human colon cancer cells. Reagents: siRNA pool against human genes, 50 nM siRNA. Measurement: 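mRNA of six signature genes measured together by branched-DNA assay after 50 nM siRNA pool, blank removed, divided by geometric mean of two housekeeping genes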. Scale: BNIP3L mRNA: higher = more BNIP3L transcript after knockdown; NDRG1 mRNA: higher = more NDRG1 transcript after knockdown; BNIP3 mRNA: higher = more BNIP3 transcript after knockdown; ALDOC mRNA: higher = more ALDOC transcript after knockdown; ACSL5 mRNA: higher = more ACSL5 transcript after knockdown.
In all, the deposit lists about 14,000 reagents; this is a random part of them. Not stated in the record: the time to read-out.

no.	gene symbol	PubChem SID	BNIP3L mRNA, set 1	NDRG1 mRNA, set 1	BNIP3 mRNA, set 1	ALDOC mRNA, set 1	ACSL5 mRNA, set 1
1	FAM167A (family with sequence similarity 167 member A)	SID364004439	0.136	0.164	0.358	0.0504	0.214
2	HOXB3 (homeobox B3)	SID363993350	0.31	0.204	0.651	0.0888	0.49
3	ANKK1 (ankyrin repeat and kinase domain containing 1)	SID364004917	0.137	0.0952	0.477	0.0171	0.336
4	DUX4L8 (double homeobox 4 like 8 (pseudogene))	SID363998092	0.0545	0.224	0.19	-0.00151	0.262
5	PPP1R9A (protein phosphatase 1 regulatory subunit 9A)	SID364005477	0.0592	0.0928	0.233	0.00592	0.161
6	SPTLC3 (serine palmitoyltransferase long chain base subunit 3)	SID364000980	0.112	0.373	0.283	0.0174	0.206
7	SOHLH2	SID364000560	0.0441	0.374	0.24	0.018	0.242
8	WASHC2A (WASH complex subunit 2A)	SID364005331	0.086	0.0283	0.112	0.0222	0.0991
9	ERF (ETS2 repressor factor)	SID363997291	0.075	0.141	0.243	0.00266	0.107
10	TIMM10 (translocase of inner mitochondrial membrane 10)	SID363998331	0.0821	0.18	0.151	0.0168	0.269
11	TRAPPC4 (trafficking protein particle complex subunit 4)	SID363999910	0.0987	0.256	0.343	0.0257	0.222
12	PCDHB8 (protocadherin beta 8)	SID364001417	0.0918	0.444	0.318	0.0226	0.273
13	LAMB4 (laminin subunit beta 4)	SID363997998	0.104	0.286	0.323	0.04	0.21
14	ROS1 (ROS proto-oncogene 1, receptor tyrosine kinase)	SID363994095	0.0413	0.0655	0.242	0.0122	0.217
15	COL6A2 (collagen type VI alpha 2 chain)	SID363993063	0.11	0.0953	0.314	0.0277	0.165
16	HPR (haptoglobin-related protein)	SID364001937	0.165	0.138	0.23	0.0258	0.212
17	NOG (noggin)	SID363996356	0.108	0.327	0.264	0.0161	0.154
18	GOSR2 (golgi SNAP receptor complex member 2)	SID363995281	0.0511	0.105	0.241	0.0141	0.118
19	SPAST (spastin)	SID363999216	0.0795	0.268	0.392	0.0101	0.349
20	CD79A (CD79a molecule)	SID363993002	0.0663	0.328	0.27	0.0239	0.223
21	RAPGEF4 (Rap guanine nucleotide exchange factor 4)	SID363997755	0.0851	0.0772	0.258	0.00689	0.148

An excerpt from above, showing only “ACSL5 mRNA, set 1”.
SOHLH2 [SID364000560]: 0.242
WASHC2A (WASH complex subunit 2A) [SID364005331]: 0.0991
ERF (ETS2 repressor factor) [SID363997291]: 0.107
TIMM10 (translocase of inner mitochondrial membrane 10) [SID363998331]: 0.269

Additional records:
no.	gene symbol	PubChem SID	BNIP3L mRNA, set 1	NDRG1 mRNA, set 1	BNIP3 mRNA, set 1	ALDOC mRNA, set 1	ACSL5 mRNA, set 1
22	TRIM24 (tripartite motif containing 24)	SID363994913	0.154	0.138	0.33	0.0499	0.202
23	DESI1 (desumoylating isopeptidase 1)	SID364005115	0.184	0.113	0.38	0.0169	0.175
24	PIGT (phosphatidylinositol glycan anchor biosynthesis class T)	SID363999734	0.201	0.456	0.406	0.0465	0.58
25	SLC25A33	SID364003901	0.138	0.327	0.322	0.0857	0.604
26	JMJD4 (jumonji domain containing 4)	SID364002613	0.0976	0.22	0.354	0.0284	0.178
27	SDCCAG8 (SHH signaling and ciliogenesis regulator SDCCAG8)	SID363997430	0.11	0.099	0.25	0.0186	0.231
28	UGT2A3 (UDP glucuronosyltransferase family 2 member A3)	SID364003021	0.13	0.257	0.27	0.0222	0.198
29	RAVER2 (ribonucleoprotein, PTB binding 2)	SID364005442	0.137	0.196	0.389	0.03	0.188
30	CSF2RB (colony stimulating factor 2 receptor subunit beta)	SID363991726	0.12	0.229	0.222	0.0371	0.24
31	ADAMTS1 (ADAM metallopeptidase with thrombospondin type 1 motif 1)	SID363997725	0.113	0.399	0.41	0.0259	0.166
32	GABRA3 (gamma-aminobutyric acid type A receptor subunit alpha3)	SID363992098	0.0578	0.145	0.191	0.0169	0.209
33	CAMK2N1 (calcium/calmodulin dependent protein kinase II inhibitor 1)	SID364001134	0.0457	0.182	0.186	-0.0202	0.114
34	MED16 (mediator complex subunit 16)	SID363996383	0.0489	0.43	0.307	0.034	0.183
35	POLE2 (DNA polymerase epsilon 2, accessory subunit)	SID363993852	0.163	0.314	0.254	0.0665	0.222
36	DHODH (dihydroorotate dehydrogenase (quinone))	SID363992638	0.0951	0.064	0.265	0.00888	0.0658
37	IKBKB (inhibitor of nuclear factor kappa B kinase subunit beta)	SID364005062	0.388	0.267	0.839	0.0407	0.711
38	CST1 (cystatin SN)	SID363993111	0.17	0.355	0.237	0.0481	0.266
39	PGPEP1 (pyroglutamyl-peptidase I)	SID364000463	0.173	0.144	0.189	0.0192	0.0957
40	SMAD6 (SMAD family member 6)	SID363996481	0.101	0.226	0.353	0.00607	0.157
41	ACOT9 (acyl-CoA thioesterase 9)	SID363998242	0.0938	0.377	0.311	0.0286	0.343
42	SEPTIN1 (septin 1)	SID364004397	0.106	0.0914	0.298	0.00938	0.152
43	CFAP43 (cilia and flagella associated protein 43)	SID364003274	0.08	0.189	0.442	0.00975	0.288
44	SLC35D2	SID364005396	0.094	0.228	0.271	0.0169	0.0937
45	KAT6B (lysine acetyltransferase 6B)	SID363998240	0.112	0.252	0.419	0.0411	0.188
46	S100A14 (S100 calcium binding protein A14)	SID364001768	0.0833	0.105	0.358	0.0173	0.173
47	CCNL2 (cyclin L2)	SID364003511	0.141	0.476	0.399	0.0553	0.258
48	NADSYN1 (NAD synthetase 1)	SID364000835	0.145	0.158	0.226	0.078	0.218
49	GPR135 (G protein-coupled receptor 135)	SID364002491	0.0708	0.056	0.365	0.00938	0.0657
50	KRT6B (keratin 6B)	SID363996455	0.093	0.113	0.279	0.0292	0.0884
